Measured values reported in US6528619B1, “Inhibitors for urokinase receptor” (Roche Diagnostics GmbH, priority 1997, dated 2003).
No constants are given. Whether binding was seen depends on the method and setting. Some entries that bind do so weakly or less than the wild type.

Protein sequences, listed by entry. Tags and fused reporters are not part of them. Residues count along the entry.
UniProt Q03405, residues 23-299: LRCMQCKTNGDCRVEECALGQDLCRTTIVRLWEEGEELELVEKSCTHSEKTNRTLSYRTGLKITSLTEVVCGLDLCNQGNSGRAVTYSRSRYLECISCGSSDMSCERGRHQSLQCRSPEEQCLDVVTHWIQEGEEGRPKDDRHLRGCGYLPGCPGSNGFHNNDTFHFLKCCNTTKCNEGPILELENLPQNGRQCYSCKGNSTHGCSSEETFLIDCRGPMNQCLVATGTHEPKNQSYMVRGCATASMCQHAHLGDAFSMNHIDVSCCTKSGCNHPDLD

Biological target: T1, recombinant human uPAR from CHO cells (human, UniProt Q03405 23-299, limits assumed)
T1 construct: Magdolen et al. 1995; also called immobilized uPAR
Test: solid phase binding test, competition with ATF on immobilized recombinant uPAR

How did the binding turn out when CVSNKYFSNIHWC (Linear form) [linear peptide uPA19-31] was run?
Its binding is “binds”.
